Test results published in PMC8233039.
These are yes or no findings as the source states them, for the method shown. In cells and extracts the contact can be indirect. Some results given as binding are weak or reduced against the parent protein; the word gives no strength. Tags and fused reporters may be left off the sequences shown.

Molecular target: T1, Flag-Chinmo (Chronologically Inappropriate Morphogenesis, 3X Flag-tagged) (D. melanogaster) (UniProt Q9VQ30)
T1 sequence: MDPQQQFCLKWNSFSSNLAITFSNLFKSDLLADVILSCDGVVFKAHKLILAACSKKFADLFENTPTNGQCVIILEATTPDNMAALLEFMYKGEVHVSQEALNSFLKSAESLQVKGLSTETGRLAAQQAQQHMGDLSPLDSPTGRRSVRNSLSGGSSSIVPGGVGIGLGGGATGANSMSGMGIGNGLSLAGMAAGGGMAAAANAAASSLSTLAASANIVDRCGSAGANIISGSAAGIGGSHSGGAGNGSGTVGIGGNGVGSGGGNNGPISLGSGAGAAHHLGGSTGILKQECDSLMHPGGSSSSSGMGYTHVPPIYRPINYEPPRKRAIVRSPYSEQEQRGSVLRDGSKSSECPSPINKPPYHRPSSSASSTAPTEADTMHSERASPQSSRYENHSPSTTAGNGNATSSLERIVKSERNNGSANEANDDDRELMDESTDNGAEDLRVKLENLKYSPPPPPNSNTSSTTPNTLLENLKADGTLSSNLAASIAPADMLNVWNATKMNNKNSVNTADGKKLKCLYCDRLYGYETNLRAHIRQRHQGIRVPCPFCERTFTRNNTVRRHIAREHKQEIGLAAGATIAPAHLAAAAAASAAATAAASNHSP
Assay: co-IP; Kc167 cells transfected with Flag-Chinmo and Myc-dSir2, control (fed) and starvation conditions; lysate (Phospho Safe Extraction buffer, protease and deacetylation inhibitors) on anti-Flag M2 affinity gel 3 h at 4°C, washed with 50 mM Tris HCl pH 7.4, 150 mM NaCl, eluted with 3X FLAG peptide; western blot with Myc antibody

B1: Myc-dSir2 (Drosophila melanogaster Sir2, Myc-tagged) (enzyme, UniProt Q9VK34 1-823)
chain: MMENYEEIRLGHIRSKDLGNQVPDTTQFYPPTKFDFGAEILASTSTEAEAEAEATATTTEPATSELAGKANGEIKTKTLAAREEQEIGANLEHKTKNPTKSMGEDEDDEEEEEEDDEEEEEDDEEGITGTSNEDEDSSSNCSSSVEPDWKLRWLQREFYTGRVPRQVIASIMPHFATGLAGDTDDSVLWDYLAHLLNEPKRRNKLASVNTFDDVISLVKKSQKIIVLTGAGVSVSCGIPDFRSTNGIYARLAHDFPDLPDPQAMFDINYFKRDPRPFYKFAREIYPGEFQPSPCHRFIKMLETKGKLLRNYTQNIDTLERVAGIQRVIECHGSFSTASCTKCRFKCNADALRADIFAQRIPVCPQCQPNKEQSVDASVAVTEEELRQLVENGIMKPDIVFFGEGLPDEYHTVMATDKDVCDLLIVIGSSLKVRPVAHIPSSIPATVPQILINREQLHHLKFDVELLGDSDVIINQICHRLSDNDDCWRQLCCDESVLTESKELMPPEHSNHHLHHHLLHHRHCSSESERQSQLDTDTQSIKSNSSADYILGSAGTCSDSGFESSTFSCGKRSTAAEAAAIERIKTDILVELNETTALSCDRLGLEGPQTTVESYRHLSIDSSKDSGIEQCDNEATPSYVRPSNLVQETKTVAPSLTPIPQQRGKRQTAAERLQPGTFYSHTNNYSYVFPGAQVFWDNDYSDDDDEEEERSHNRHSDLFGNVGHNYKDDDEDACDLNAVPLSPLLPPSLEAHIVTDIVNGSNEPLPNSSPGQKRTACIIEQQPTPAIETEIPPLKKRRPSEENKQQTQIERSEESPPPGQLAAV
Q: With B1 as the binder, how does the binding read?
A: binds
